According to publication PMC5909267:
Results are given in words; binding and its absence hold for the method and conditions named. In cells and extracts the contact can be indirect. Some results given as binding are weak or reduced against the parent protein; the word gives no strength.

Sequences of proteins named here, by UniProt entry; tags and fusion partners are left off.
UniProt P63159: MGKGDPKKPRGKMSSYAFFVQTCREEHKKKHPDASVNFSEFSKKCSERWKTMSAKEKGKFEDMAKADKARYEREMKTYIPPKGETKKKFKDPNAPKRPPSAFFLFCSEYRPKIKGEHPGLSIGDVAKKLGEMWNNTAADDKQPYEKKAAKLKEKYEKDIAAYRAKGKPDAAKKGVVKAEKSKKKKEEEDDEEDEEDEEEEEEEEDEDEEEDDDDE

Target: T1, Sirtuin1 (SIRT1) (rat (endogenous in Sprague-Dawley rat brain cortex))
T1 sequence: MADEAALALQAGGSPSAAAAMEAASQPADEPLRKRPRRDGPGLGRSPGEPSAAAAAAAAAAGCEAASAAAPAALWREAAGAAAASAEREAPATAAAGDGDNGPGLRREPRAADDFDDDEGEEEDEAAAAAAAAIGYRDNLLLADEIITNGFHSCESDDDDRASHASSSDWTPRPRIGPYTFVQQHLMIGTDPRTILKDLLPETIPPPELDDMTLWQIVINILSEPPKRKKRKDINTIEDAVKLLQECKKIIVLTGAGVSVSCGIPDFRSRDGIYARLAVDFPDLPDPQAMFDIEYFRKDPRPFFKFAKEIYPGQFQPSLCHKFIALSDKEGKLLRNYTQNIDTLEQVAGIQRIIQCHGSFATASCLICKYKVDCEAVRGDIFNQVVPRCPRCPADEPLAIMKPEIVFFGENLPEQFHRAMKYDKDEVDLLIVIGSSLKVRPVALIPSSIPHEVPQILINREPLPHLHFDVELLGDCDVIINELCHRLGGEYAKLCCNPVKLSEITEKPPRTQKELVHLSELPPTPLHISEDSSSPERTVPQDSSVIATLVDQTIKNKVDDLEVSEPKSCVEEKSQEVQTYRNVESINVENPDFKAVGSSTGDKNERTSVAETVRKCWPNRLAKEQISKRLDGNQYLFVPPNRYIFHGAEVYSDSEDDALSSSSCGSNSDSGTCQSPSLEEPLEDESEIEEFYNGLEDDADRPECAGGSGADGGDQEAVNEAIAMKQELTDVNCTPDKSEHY
Experiment: co-IP; brain tissue from lesioned cortices 3 days after TBI, incubated with 1 ug antibody for 2 h at 4 °C, then protein A/G agarose beads overnight, washed three times with lysis buffer, western blot; groups: sham, TBI, TBI + ω-3 PUFA

binding: binds
Substance: High mobile group box 1 (HMGB1) (from UniProt P63159 1-215)
